Results deposited as PubChem BioAssay AID1508597 (Cure First, 2020).

- Assay: 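Survival screen with siRNA in ovarian cancer cells derived from patients, with or without rucaparib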 (primary screen)
- Cells: human ovarian carcinoma lines grown from tumours: OCI-P5x (papillary serous) and OCI-C5x (clear cell)
- Reagents: siRNA pool against human genes, 1.25 pmol siRNA per well
- Time to read-out: 72 h or 96 h, depending on the cell culture
- Treatment: rucaparib 20 µM (about IC30) or vehicle, present until read-out
- Rucaparib or vehicle: Vehicle
- Cell line: OCI-C5x (clear cell)
- Read-out: 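ATP luminescence measured at 72 or 96 h according to the culture, then normalised and expressed as percent viability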
- Direction: viability, normalised: higher = more viable cells remaining
- Call rule: 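Active when normalised viability falls below 80 percent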
- Calls: active = viability under 80%; inactive = viability 80% or more
This is a random part of the about 2,100 reagents, under one of the conditions tested. 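Calls flag viability under 80% in either arm, not effects specific to rucaparib; the reference for percent is not stated.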 Entries without a mark were called inactive. Not stated in the record: the 100% reference.

no.	target gene	technical replicate	viability, normalised (%)
1	CHD6	1	30.2 (active)
2	CHD6	2	55.2 (active)
3	CHD6	3	41.7 (active)
4	F10	1	46.3 (active)
5	F10	2	61.1 (active)
6	F10	3	59.2 (active)
7	SP140	1	36.2 (active)
8	SP140	2	39.4 (active)
9	SP140	3	37.1 (active)
10	KPNA2	1	86.4
11	KPNA2	2	68.4 (active)
12	KPNA2	3	58.7 (active)
13	EPHA7	1	79.9 (active)
14	EPHA7	2	64.5 (active)
15	EPHA7	3	89.1
16	LY6E	1	63.4 (active)
17	LY6E	2	70.1 (active)
18	LY6E	3	54.5 (active)
19	ZSCAN20	1	66.1 (active)
20	ZSCAN20	2	65.2 (active)
21	ZSCAN20	3	52.8 (active)
22	PIN1	1	136
23	PIN1	2	74.6 (active)
24	PIN1	3	69.5 (active)
25	HIPK2	1	79.5 (active)
26	HIPK2	2	58.1 (active)
27	HIPK2	3	54.9 (active)
28	PKLR	1	79.9 (active)
29	PKLR	2	70.6 (active)
30	PKLR	3	59.5 (active)
31	MTA1	1	44.5 (active)
32	MTA1	2	42 (active)
33	MTA1	3	47.2 (active)
34	MET	1	64.6 (active)
35	MET	2	63.5 (active)
36	MET	3	74.2 (active)
37	XYLB	1	53.6 (active)
38	XYLB	2	60.3 (active)
39	XYLB	3	34.6 (active)
40	SLC22A12	1	41.3 (active)
41	SLC22A12	2	34.1 (active)
42	SLC22A12	3	49.7 (active)
43	SMYD3	1	60.8 (active)
44	SMYD3	2	69.4 (active)
45	SMYD3	3	62.7 (active)
46	DDR2	1	72.1 (active)
47	DDR2	2	55.4 (active)
48	DDR2	3	67.5 (active)
49	PIP4K2B	1	57.9 (active)
50	PIP4K2B	2	64.1 (active)
51	PIP4K2B	3	58.9 (active)
52	TESK2	1	57.5 (active)
53	TESK2	2	54.6 (active)
54	TESK2	3	49.5 (active)
55	AGO4	1	28 (active)
56	AGO4	2	34 (active)
57	AGO4	3	22.9 (active)

Looked up above:
Result of EPHA7, technical replicate 3 under “viability, normalised (%)”: 89.1
DDR2, technical replicate 2, viability, normalised (%) = 55.4 (active)
For “viability, normalised (%)”, AGO4, technical replicate 2 shows 34 (active)
Result for F10, technical replicate 3 in “viability, normalised (%)”: 59.2 (active)
